Values quoted from earlier work, collected in patent publication US20120301402A1, “RAP1A AS A MARKER FOR CARDIAC ARRHYTHMIA” (NATIONWIDE CHILDREN'S HOSPITAL, INC., priority 2011, published 2012).
At least one structure is not confirmed: it was looked up by name or label, or the drawing left a doubt.

Experiments:
Rap1 = details: quiescent arteriolar VSM, cited from earlier work
Rap2 = details: quiescent arteriolar VSM, 10 uM, 0, 5, 10, 30 minutes; cited from earlier work

Q: Which “Rap1 activation (GTP-bound Rap1 pull-down)” value (Rap1; 10 uM, 0, 5, 10, 30 minutes) does the source give for C=C[C@@]1(C)CC(=O)[C@]2(O)[C@@]3(C)[C@@H](O)CCC(C)(C)[C@@H]3[C@H](O)[C@H](OC(C)=O)[C@@]2(C)O1 [Forskolin, forskolin] here?
A: activated

Q: What about the “Time of maximum Rap1 activation” value (Rap1; 10 uM) of the same molecule?
A: 5 min

Q: And the “Rap2 activation (pull-down)” value (Rap2)?
A: unaffected
